Laboratory results from article PMC5122416.
These are yes or no findings as the source states them, for the method shown. Binding seen in cells or lysates may run through a third protein. Some results given as binding are weak or reduced against the parent protein; the word gives no strength.

Amino acid sequences for entries named in this document (tags omitted).
UniProt O94953: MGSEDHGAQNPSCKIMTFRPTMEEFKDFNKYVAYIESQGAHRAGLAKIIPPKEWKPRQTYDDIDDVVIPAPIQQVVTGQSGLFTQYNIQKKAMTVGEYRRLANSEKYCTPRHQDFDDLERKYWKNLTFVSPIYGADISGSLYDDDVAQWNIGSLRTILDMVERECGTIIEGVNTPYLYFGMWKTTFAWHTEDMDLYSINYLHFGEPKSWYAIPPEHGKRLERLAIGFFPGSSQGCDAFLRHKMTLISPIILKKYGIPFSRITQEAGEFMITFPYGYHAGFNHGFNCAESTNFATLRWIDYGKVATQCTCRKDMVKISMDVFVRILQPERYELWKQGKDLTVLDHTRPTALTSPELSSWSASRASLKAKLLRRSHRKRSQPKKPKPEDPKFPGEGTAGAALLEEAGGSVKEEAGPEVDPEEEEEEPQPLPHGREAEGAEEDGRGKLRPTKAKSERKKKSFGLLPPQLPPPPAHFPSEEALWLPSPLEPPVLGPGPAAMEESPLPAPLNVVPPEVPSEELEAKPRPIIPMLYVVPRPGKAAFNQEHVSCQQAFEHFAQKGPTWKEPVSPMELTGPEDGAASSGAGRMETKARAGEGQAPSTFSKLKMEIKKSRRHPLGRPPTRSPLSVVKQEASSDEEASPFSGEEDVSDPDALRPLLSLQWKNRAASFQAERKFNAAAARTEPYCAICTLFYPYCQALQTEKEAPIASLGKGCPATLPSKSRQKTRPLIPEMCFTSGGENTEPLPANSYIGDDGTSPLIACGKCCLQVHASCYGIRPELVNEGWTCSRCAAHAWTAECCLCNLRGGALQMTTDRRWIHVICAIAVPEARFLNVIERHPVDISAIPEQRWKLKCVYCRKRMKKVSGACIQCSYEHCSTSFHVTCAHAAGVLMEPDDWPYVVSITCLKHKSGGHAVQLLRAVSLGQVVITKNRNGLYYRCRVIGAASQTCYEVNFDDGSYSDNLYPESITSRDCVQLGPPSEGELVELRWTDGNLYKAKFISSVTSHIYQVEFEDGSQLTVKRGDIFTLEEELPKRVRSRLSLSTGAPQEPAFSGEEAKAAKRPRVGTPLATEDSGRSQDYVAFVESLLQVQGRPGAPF
UniProt Q04206: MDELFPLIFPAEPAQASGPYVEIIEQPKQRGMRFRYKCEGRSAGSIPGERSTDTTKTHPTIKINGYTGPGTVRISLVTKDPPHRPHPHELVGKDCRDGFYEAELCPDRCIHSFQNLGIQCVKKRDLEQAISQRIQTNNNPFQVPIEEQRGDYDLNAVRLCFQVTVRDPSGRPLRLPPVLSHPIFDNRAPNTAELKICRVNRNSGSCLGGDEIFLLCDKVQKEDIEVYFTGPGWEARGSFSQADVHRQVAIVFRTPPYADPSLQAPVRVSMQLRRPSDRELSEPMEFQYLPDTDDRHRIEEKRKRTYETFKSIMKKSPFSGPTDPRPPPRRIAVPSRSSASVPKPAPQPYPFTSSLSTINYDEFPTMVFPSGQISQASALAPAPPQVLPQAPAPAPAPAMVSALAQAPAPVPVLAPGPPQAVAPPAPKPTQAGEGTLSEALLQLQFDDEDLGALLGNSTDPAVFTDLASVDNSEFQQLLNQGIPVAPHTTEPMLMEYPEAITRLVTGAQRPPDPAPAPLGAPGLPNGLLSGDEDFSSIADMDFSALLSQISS

Target: JMJD2B (human (endogenous in AGS and GES-1)) (UniProt O94953)
Assay: co-IP; AGS and GES-1 cells infected with H. pylori, lysed in RIPA buffer; immunoprecipitated with anti-JMJD2B antibody and protein G PLUS-Agarose beads at 4°C; p65 detected by Western blot

binding: binds
Substance: NF-κB (p65) (from UniProt Q04206 1-551)
